Data on 15 sequences can be found in US20030211466.

Where cells or extracts were used, other partners may take part. For at least one entry, the source does not settle the construct or the ends of the probe.

The test system of series [1] is HuB (Hel-N2, ELAV-like). Kind of series: binding assay. To be noted: protein in cells.
Series [2] has as its system HuB (Hel-N2, ELAV-like). Kind of series: SELEX. To be noted: CITED previously defined in vitro binding sequence; protein in cells.

As for “AAAUUUUAUUAAGUUA [HOX2.5 mRNA, 3'UTR motif]”, the binding result with HuB (Hel-N2, ELAV-like) [1] (whole mRNA enriched after retinoic acid, further motifs SEQ 5,7) is “binds”.
With “AAUGGUUUAUAUUUAUGAU [Integrin alpha 5 mRNA, 3'UTR motif]”, the binding result in the series on HuB (Hel-N2, ELAV-like) [1] (whole mRNA enriched after retinoic acid, further motif SEQ 22) is on record as “binds”.
On to “AUGUCUUGUUCUUUGUGUUUUUAGGAU [cyclin D2 mRNA, 3'UTR motif]”, for which the binding result with HuB (Hel-N2, ELAV-like) [1] (RNP immunoprecipitation of whole mRNA, motif itself not assayed) is “binds”.
On to “AUUUUCUAUUCCUUUUUUAUUUUAUGUCAUUUUUUUA [CD44 mRNA, 3'UTR motif]”, for which, in the series on HuB (Hel-N2, ELAV-like) [1] (whole mRNA enriched in HuB mRNP after retinoic acid, motif not assayed alone), the binding result was “binds”.
In the case of “UAAAAAACCAAAUUUGAUUGGCUCUAAACA [IGF-2 mRNA, 3'UTR motif]”, the binding result in the series on HuB (Hel-N2, ELAV-like) [1] (whole mRNA in HuB mRNP only after retinoic acid, further motifs SEQ 3,4) is reported as “binds”.
On to “UAUAAUUUUUAAUUUUUUAUUAUUUU [Integrin beta mRNA, 3'UTR motif]”, for which, in the series with HuB (Hel-N2, ELAV-like) [1] (whole mRNA in HuB mRNP, further motif SEQ 26), the binding result is recorded as “binds”.
For “UAUUUUGUGGUUUUAUUUUACUUUGUACUU [Egr-1/Zif268 mRNA, 3'UTR motif]”, in the series on HuB (Hel-N2, ELAV-like) [1] (whole mRNA enriched after retinoic acid, further motif SEQ 16), the binding result is listed as “binds”.
For “UAUUUUUUUUCUUUUUUUUUUUUGGUCUUUAU [GADD45 mRNA, 3'UTR motif]”, in the series with HuB (Hel-N2, ELAV-like) [1] (whole mRNA enriched after retinoic acid, further motif SEQ 11), the binding result is given as “binds”.
Take “UGCAUCGAUCCGUUGAUUUACUACU [Cf2r mRNA, 3'UTR motif]”: the binding result in the series with HuB (Hel-N2, ELAV-like) [1] (whole mRNA enriched after retinoic acid) is given as “binds”.
As for “UUAUGAAUGUUAUAUUUGU [CTCF mRNA, 3'UTR motif]”, the binding result with HuB (Hel-N2, ELAV-like) [1] (whole mRNA enriched after retinoic acid, further motif SEQ 28) is on record as “binds”.
For “UUCUGUUAAAUAUUUUUAUAUACUGCUUUCUUUUUU [Nexin 1 mRNA, 3'UTR motif]”, in the series with HuB (Hel-N2, ELAV-like) [1] (whole mRNA enriched after retinoic acid, further motifs SEQ 13,14), the binding result was “binds”.
Take UUUAUUU [HuB in vitro consensus]: the selection result with HuB (Hel-N2, ELAV-like) [2] is recorded as “selected”.
As for “UUUUGUUUUUCUCCCUUUUUUAGUUUUUUCAAA [J6 (inhibitor J6) mRNA, 3'UTR motif]”, the binding result in the series on HuB (Hel-N2, ELAV-like) [1] (whole mRNA enriched after retinoic acid, further motif SEQ 8, listing differs from table) was “binds”.
Take “UUUUUUAUUUUCUGUAUUUUUU [Neuronal cadherin mRNA, 3'UTR motif]”: in the series on HuB (Hel-N2, ELAV-like) [1] (whole mRNA enriched after retinoic acid, further motifs SEQ 18-20), the binding result is on record as “binds”.
On to “UUUUUUUUUCCUUUUAAUUGUAAAUGGUUCUUU [TGF beta 2 mRNA, 3'UTR motif]”, for which, in the series with HuB (Hel-N2, ELAV-like) [1] (whole mRNA enriched after retinoic acid, further motifs SEQ 30-35), the binding result was “binds”.
